# Experimental data: PubChem BioAssay (NCATS)
# The inconclusive results got no clear call from the source; some entries with a clear call stand among them for comparison. For some assays here: A potency beside an inconclusive call is a rough fit, not a confirmed value. Active and inactive are the calls of the source. Calls follow the shape of the dose curve; as a rule, active = well fitted cell-killing curve with a large enough effect; inconclusive = small, poorly fitted or top-dose-only effect, or effect the other way; inactive = no such curve, though single readings can be large or run the other way.
# What was measured:
# [1] = Quantitative High-Throughput drug screen in 47 multiple myeloma cell lines against the NCATS MIPE library collection: MOLP8_DSMZ cell viability assay (AID 1918977); also: nearly all actives have a fitted effect of over 45% in size;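 as to viability (% of control): 100% = DMSO-only wells and 0% = media-only wells without cells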
# Method in brief: (§1)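 Cells were exposed to library compounds for 48 hours, after which ATP was measured by CellTiter-Glo. Signal was taken as median relative luminescence units.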
# [2] = Quantitative High-Throughput drug screen in 47 multiple myeloma cell lines against the NCATS MIPE library collection: LP1_DSMZ cell viability assay (AID 1918982); also: nearly all actives have a fitted effect of over 35% in size
# Method in brief: as §1
# [3] = Quantitative High-Throughput drug screen in 47 multiple myeloma cell lines against the NCATS MIPE library collection: L363_DSMZ cell viability assay (AID 1918984); conditions: L363 myeloma viability, CellTiter-Glo ATP luminescence, 48 h; viability (% of control): at 45.8 µM (top of the series); also: nearly all actives have a fitted effect of over 40% in size
# Method in brief: as §1
# [4] = Quantitative High-Throughput drug screen in 47 multiple myeloma cell lines against the NCATS MIPE library collection: OCIMY7_PLB cell viability assay (AID 1918987); conditions: OCI-MY7 myeloma viability, CellTiter-Glo ATP, 48 h; viability (% of DMSO): at 45.8 µM unless noted; also: nearly all actives have a fitted effect of over 65% in size
# Method in brief: as §1
# [5] = Quantitative High-Throughput drug screen in 47 multiple myeloma cell lines against the NCATS MIPE library collection: SKMM1_PLB cell viability assay (AID 1919863); conditions: SKMM1 myeloma viability, CellTiter-Glo ATP, 48 h; viability: stronger effect = lower value; also: nearly all actives have a fitted effect of over 35% in size
# Method in brief: as §1
# [6] = Quantitative High-Throughput drug screen in 47 multiple myeloma cell lines against the NCATS MIPE library collection: XG6_PLB cell viability assay (AID 1919865); conditions: XG6 myeloma viability, CellTiter-Glo ATP luminescence, 48 h; viability (% of control): at 45.8 µM; also: nearly all actives have a fitted effect of over 40% in size;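 as to viability (% of control): 100% = DMSO-only wells and 0% = media-only wells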
# Method in brief: as §1
# [7] = Quantitative High-Throughput drug screen in 47 multiple myeloma cell lines against the NCATS MIPE library collection: UTMC2_PLB cell viability assay (AID 1919868); conditions: CellTiter-Glo ATP luminescence, 48 h; viability (% of DMSO control): at 45.8 µM; also: nearly all actives have a fitted effect of over 55% in size;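 as to viability (% of DMSO control): 100% = DMSO-only wells and 0% = media-only wells without cells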
# Method in brief: as §1
# [8] = Quantitative High-Throughput drug screen in 47 multiple myeloma cell lines against the NCATS MIPE library collection: PCM6_Riken cell viability assay (AID 1919870); conditions: CellTiter-Glo ATP, 48 h; viability (% of control): at 45.8 µM; also: nearly all actives have a fitted effect of over 30% in size;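 as to viability (% of control): 100% = DMSO-only wells and 0% = media-only wells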
# Method in brief: as §1
# [9] = Quantitative High-Throughput drug screen in 47 multiple myeloma cell lines against the NCATS MIPE library collection: U266_ATCC cell viability assay (AID 1919864); also: nearly all actives have a fitted effect of over 35% in size;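 as to viability (% of DMSO control): 0% = media-only wells without cells and 100% = DMSO-only wells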
# Method in brief: as §1
# [10] = Quantitative High-Throughput drug screen in 47 multiple myeloma cell lines against the NCATS MIPE library collection: PE2_PLB cell viability assay (AID 1919869); conditions: PE2_PLB myeloma cells viability, ATP luminescence, 48 h; viability (% of control): at 45.8 µM; also: nearly all actives have a fitted effect of over 35% in size;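 as to viability (% of control): 100% = DMSO-only wells and 0% = cell-free media-only wells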
# Method in brief: as §1
# [11] = Quantitative High-Throughput drug screen in 47 multiple myeloma cell lines against the NCATS MIPE library collection: OCIMY5_PLB cell viability assay (AID 1918988); conditions: OCI-MY5 myeloma viability, ATP luminescence, 48 h; viability, % of control: at 45.8 µM; also: nearly all actives have a fitted effect of over 65% in size
# Method in brief: as §1
# [12] = Quantitative High-Throughput drug screen in 47 multiple myeloma cell lines against the NCATS MIPE library collection: KMS28PE_JCRB cell viability assay (AID 1918983); also: nearly all actives have a fitted effect of over 35% in size
# Method in brief: as §1
# [13] = Quantitative High-Throughput drug screen in 47 multiple myeloma cell lines against the NCATS MIPE library collection: VP6_DJ cell viability assay (AID 1919867); conditions: ATP luminescence, 48 h; viability (% of DMSO): at 45.8 µM; also: nearly all actives have a fitted effect of over 40% in size;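 as to viability (% of DMSO): 100% = DMSO-only wells and 0% = wells with media alone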
# Method in brief: as §1
# [14] = Quantitative High-Throughput drug screen in 47 multiple myeloma cell lines against the NCATS MIPE library collection: OPM1_PLB cell viability assay (AID 1918989); conditions: CellTiter-Glo, 48 h; viability (% of control): at 45.8 µM; also: nearly all actives have a fitted effect of over 40% in size;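 as to viability (% of control): 100% = DMSO-only wells and 0% = media-only wells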
# Method in brief: as §1
# [15] = Quantitative High-Throughput drug screen in 47 multiple myeloma cell lines against the NCATS MIPE library collection: KMS34_JCRB cell viability assay (AID 1918985); conditions: KMS34 myeloma viability, CellTiter-Glo ATP luminescence, 48 h; viability, percent of control: at 45.8 µM; also: nearly all actives have a fitted effect of over 40% in size
# Method in brief: as §1
# [16] = Quantitative High-Throughput drug screen in 47 multiple myeloma cell lines against the NCATS MIPE library collection: XG1_PLB cell viability assay (AID 1919866); also: nearly all actives have a fitted effect of over 35% in size
# Method in brief: as §1
# Potency is read from the fitted curve at half-maximal effect.
smiles,measurement,setting,value
O=S(=O)(O)c1ccc2cc(N=Nc3cc(S(=O)(=O)O)c4cccnc4c3O)ccc2c1,Potency,[1],"inconclusive: 2.64 µM [cytotoxic, full curve]"
same,Potency,[2],"inconclusive: 14.8 µM [cytotoxic, partial curve, poor fit]"
same,Potency,[3],"inconclusive: 9.35 µM [cytotoxic, single point]"
same,Potency,[4],"inconclusive: 29.6 µM [cytotoxic, single point]"
same,Potency,[5],active: 18.7 µM
same,Potency,[6],"inconclusive: 0.662 µM [cytotoxic, full curve, poor fit]"
same,Potency,[7],"inconclusive: 4.69 µM [cytotoxic, full curve, poor fit]"
same,Potency,[8],"inconclusive: 10.5 µM [cytotoxic, partial curve, poor fit]"
Cc1ncc(-c2ccnc(Nc3ccc(S(C)(=O)=O)cc3)n2)n1C(C)C,Potency,[1],active: 1.32 µM
same,Potency,[2],active: 3.32 µM
same,Potency,[3],active: 1.66 µM
same,Potency,[9],active: 3.32 µM
same,Potency,[7],active: 3.32 µM
same,Potency,[10],active: 2.35 µM
COc1ccc(Nc2cc(-c3cnc(N)nc3)nc(N3CCOCC3)n2)cn1,Potency,[1],active: 0.833 µM
same,Potency,[2],"inconclusive: 5.26 µM [cytotoxic, partial curve]"
same,Potency,[3],active: 0.526 µM
same,Potency,[5],active: 0.235 µM
same,Potency,[7],"inconclusive: 0.235 µM [cytotoxic, full curve, poor fit]"
same,Potency,[8],"inconclusive: 10.5 µM [cytotoxic, full curve]"
Cc1nnc(NS(=O)(=O)c2ccc(N)cc2)s1,Potency,[1],"inconclusive: 41.8 µM [cytotoxic, partial curve, poor fit]"
same,Potency,[4],"inconclusive: 1.66 µM [cytotoxic, full curve, poor fit]"
same,Potency,[11],"inconclusive: 20.9 µM [cytotoxic, partial curve, poor fit]"
same,Potency,[5],"inconclusive: 14.8 µM [cytotoxic, partial curve, poor fit]"
same,Potency,[7],"inconclusive: 14.8 µM [cytotoxic, partial curve, poor fit]"
same,Potency,[8],active: 1.18 µM
COC(=O)c1ccc2c(C(=Nc3ccc(N(C)C(=O)CN4CCN(C)CC4)cc3)c3ccccc3)c(O)[nH]c2c1,Potency,[1],active: 9.35 µM
same,Potency,[2],"inconclusive: 2.35 µM [cytotoxic, full curve]"
same,Potency,[12],active: 7.43 µM
same,Potency,[3],"inconclusive: 0.332 µM [cytotoxic, full curve, poor fit]"
same,Potency,[4],"inconclusive: 1.48 µM [cytotoxic, full curve, poor fit]"
same,Potency,[11],active: 7.43 µM
same,Potency,[5],active: 9.35 µM
same,Potency,[9],active: 18.7 µM
same,Potency,[13],"inconclusive: 1.66 µM [cytotoxic, full curve]"
same,Potency,[7],active: 6.62 µM
CC(C)(C)NC(=O)[C@H]1CC[C@H]2[C@@H]3CC[C@H]4NC(=O)C=C[C@]4(C)[C@H]3CC[C@]12C,Potency,[1],"inconclusive: 0.0093 µM [rising, full curve, poor fit]"
same,Potency,[2],"inconclusive: 9.35 µM [rising, single point]"
same,Potency,[3],"inconclusive: 0.332 µM [cytotoxic, full curve, poor fit]"
same,Potency,[14],active: 2.64 µM
same,viability,[5],inactive: 142%
CN(C)c1ccc(-c2nc3ncc(Cl)c(N4CCN(CC(=O)Nc5nccs5)CC4)c3[nH]2)cc1,Potency,[1],"inconclusive: 26.4 µM [cytotoxic, single point]"
same,Potency,[12],active: 5.26 µM
same,Potency,[3],inactive
same,Potency,[15],active: 2.96 µM
same,Potency,[11],active: 5.26 µM
same,Potency,[9],active: 2.96 µM
same,Potency,[16],"inconclusive: 1.32 µM [cytotoxic, full curve]"
same,Potency,[13],inactive
same,Potency,[7],"inconclusive: 3.32 µM [cytotoxic, full curve, poor fit]"
COc1ccc(CCC(=O)Nc2nc3ccc(Cl)cc3s2)cc1OC,Potency,[1],inactive
same,Potency,[2],"inconclusive: 23.5 µM [cytotoxic, single point]"
same,Potency,[3],"inconclusive: 0.003 µM [cytotoxic, full curve, poor fit]"
same,Potency,[15],"inconclusive: 37.2 µM [cytotoxic, single point]"
same,Potency,[4],"inconclusive: 18.7 µM [cytotoxic, partial curve, poor fit]"
same,Potency,[11],"inconclusive: 20.9 µM [cytotoxic, partial curve, poor fit]"
same,Potency,[14],inactive
same,Potency,[5],"inconclusive: 0.0059 µM [cytotoxic, full curve, poor fit]"
same,Potency,[9],active: 16.6 µM
same,viability (% of DMSO),[13],inconclusive: 113% [cytotoxic]
same,Potency,[7],"inconclusive: 0.935 µM [cytotoxic, full curve, poor fit]"
same,Potency,[8],"inconclusive: 16.6 µM [cytotoxic, partial curve, poor fit]"
COc1ccnc2[nH]cc(C(=O)C(=O)N3CCN(C(=O)c4ccccc4)C[C@@H]3C)c12,Potency,[1],inactive
same,Potency,[2],inactive
same,Potency,[3],"inconclusive: 0.0053 µM [cytotoxic, full curve, poor fit]"
same,Potency,[15],"inconclusive: 37.2 µM [cytotoxic, single point]"
same,Potency,[4],inconclusive: 0.001 µM
same,Potency,[11],"inconclusive: 5.26 µM [cytotoxic, full curve, poor fit]"
same,Potency,[9],inactive
same,Potency,[6],inactive
same,Potency,[13],"inconclusive: 0.0037 µM [rising, full curve, poor fit]"
same,Potency,[7],inactive
same,Potency,[10],inactive
same,Potency,[8],inactive

# 2 records drawn at random from those above, as already listed:
smiles,measurement,setting,value
Cc1ncc(-c2ccnc(Nc3ccc(S(C)(=O)=O)cc3)n2)n1C(C)C,Potency,[10],active: 2.35 µM
CC(C)(C)NC(=O)[C@H]1CC[C@H]2[C@@H]3CC[C@H]4NC(=O)C=C[C@]4(C)[C@H]3CC[C@]12C,viability,[5],inactive: 142%
